{"source": "PubChem BioAssay AID493014", "about": "(National Center for Advancing Translational Sciences (NCATS), 2011)", "note": "About 170 (0.05%) of roughly 340,000 compounds were called active. Inconclusive results, whose numbers are uncertain, are shown with a selection of clear calls. Calls come from the whole dose curve; as a rule, active = well fitted inhibition curve with a large enough effect in the signal ratio, with a control signal flat (not every such curve was filed as active); inconclusive = small, poorly fitted or top-dose-only effect, or effect the other way, or a change in a side signal; inactive = flat fitted curve, though single readings scatter; the % refers to the signal ratio. Potencies beside an inconclusive call are fits to weak or partial responses and may not hold up. Potency is the fitted concentration of half-maximal effect.", "data": [{"assay": "qHTS Assay to Find Inhibitors of Chronic Active B-Cell Receptor Signaling;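 for activity change, negative = inhibition: plate controls were basal doxycycline-induced cells for no effect and cells given 10 µM MG132 for full effect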", "conditions": "ABC-DLBCL IkBa-CBG/CBR reporter, luminescence ratio (green luciferase fused to IkBa over red control in TMD8 lymphoma cells), 4 h; activity change, negative = inhibition: at 46.1 µM (top of the series) unless noted", "method_in_brief": "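Compounds up to 46 uM were incubated four hours with TMD8 cells whose green CBG68 luciferase is fused to IkappaBalpha; red CBR luminescence normalised the signal, and concentration-effect curves were fitted to fusion, red and ratio data.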", "values": [{"smiles": "O=C(O)c1ccc(-c2nc(-c3ccccc3Cl)cs2)cc1", "activity change, negative = inhibition": "inconclusive: -19.4%"}, {"smiles": "O=C(Nc1ccccc1)Nc1ccncc1", "Potency": "inconclusive: 11.2 µM [falling, partial curve, poor fit]"}, {"smiles": "O=C(c1ccco1)N1CCN(S(=O)(=O)c2c(Cl)cccc2Cl)CC1", "activity change, negative = inhibition": "inconclusive: 0.346%"}, {"smiles": "COc1ccc(OC)c(NC(=O)c2ccc(-n3cccn3)nc2)c1", "activity change, negative = inhibition": "inconclusive: -3.51%"}, {"smiles": "CCOC(=O)CN1C(=O)C(O)(C2CCc3ccccc3C2=O)c2ccccc21", "note": "(stereo not drawn)", "activity change, negative = inhibition": "inactive"}, {"smiles": "CO[C@H]1C=CO[C@@]2(C)Oc3c(C)c(O)c4c(O)c(c(C=NN5CCN(C)CC5)c(O)c4c3C2=O)NC(=O)C(C)=CC=C[C@H](C)[C@H](O)[C@@H](C)[C@@H](O)[C@@H](C)[C@H](OC(C)=O)[C@@H]1C", "Potency": "inconclusive: 11.2 µM [rising, partial curve, poor fit]"}, {"smiles": "O=C(Cc1c[nH]c2ccccc12)Nc1nc2ccccc2[nH]1", "activity change, negative = inhibition": "inconclusive: -4.29%"}, {"smiles": "O=c1c(Oc2ccccc2Br)c(C(F)(F)F)oc2c(CN3CCCC3)c(O)ccc12", "Potency": "inconclusive: 35.5 µM [falling, single point]"}, {"smiles": "CC1CC(C)CN(CCC(=O)Nc2ccc3c(c2)CCC3)C1", "note": "(stereo not drawn)", "activity change, negative = inhibition": "inconclusive: -1.53%"}, {"smiles": "N#Cc1ccc(NC(=O)c2cc(=O)c3ccccc3o2)cc1", "activity change, negative = inhibition": "inconclusive: 7.68%"}, {"smiles": "O=C(Nc1ccc(F)cc1)c1ccc(S(=O)(=O)N2CCCC2)cc1", "activity change, negative = inhibition": "inconclusive: 0.197%"}, {"smiles": "Cc1ccc2cc(C(c3nnnn3C3CCCC3)N3CCN(c4ccc(F)cc4)CC3)c(=O)[nH]c2c1", "note": "(stereo not drawn)", "activity change, negative = inhibition": "inconclusive: 18.8%"}, {"smiles": "CN1/C(=C\\C(=O)C[n+]2ccc3ccccc3c2)C(C)(C)c2ccccc21", "activity change, negative = inhibition": "inactive"}, {"smiles": "COc1ccc(/C=C/C(=O)NC2CC3CCC2C3)cc1", "note": "(stereo not drawn)", "Potency": "inconclusive: 15.8 µM [falling, partial curve, poor fit]"}, {"smiles": "C=CCn1c(=O)c2ccccc2n2c(Sc3nnnn3-c3ccccc3)nnc12", "activity change, negative = inhibition": "inconclusive: 3.09%"}, {"smiles": "COc1ccc(Br)c(-c2nc(CS(=O)(=O)c3ccc(F)cc3)no2)c1", "activity change, negative = inhibition": "inconclusive: -7.55%"}, {"smiles": "Cc1ccc(CN2C(=NC(=O)CCC(=O)O)SC3CS(=O)(=O)CC32)cc1", "note": "(stereo not drawn)", "Potency": "inconclusive: 35.5 µM [falling, partial curve, poor fit]"}, {"smiles": "O=C(NCCc1ccccc1)c1ccc2c(c1)S(=O)(=O)N=C1CCCCCN12", "activity change, negative = inhibition": "inconclusive: 7.1%"}, {"smiles": "CC1=NN(c2ccccc2)C(=O)/C1=C/C=C/c1ccccc1", "Potency": "inconclusive: 3.26 µM [falling, full curve]"}, {"smiles": "O=C(Nc1ccccc1C(=O)N1CCOCC1)c1ccc(F)cc1", "activity change, negative = inhibition": "inconclusive: 20.8%"}, {"smiles": "CCc1nc(Nc2ccc3c(c2)OCCO3)c2oc3ccccc3c2n1", "activity change, negative = inhibition": "inconclusive: -3.95%"}, {"smiles": "O=C(c1ccco1)N1CCN(C(=O)C2CCCN(S(=O)(=O)c3cccc4nsnc34)C2)CC1", "note": "(stereo not drawn)", "activity change, negative = inhibition": "inconclusive: 2.54%"}, {"smiles": "COc1cc(/C=C(/C#N)c2nc3ccccc3[nH]2)ccc1OCc1ccc(C(=O)O)o1", "Potency": "inconclusive: 31.6 µM [rising, single point]"}, {"smiles": "C=CCn1c(SCC(=O)NCC2CCCO2)nc2scc(-c3ccccc3)c2c1=O", "note": "(stereo not drawn)", "activity change, negative = inhibition": "inconclusive: 4.19%"}, {"smiles": "O=C(O)c1ccc2c(=O)n(-c3ccccc3)c(=S)[nH]c2c1", "Potency": "inconclusive: 15.8 µM [falling, partial curve]"}, {"smiles": "Fc1ccc(NC(=S)NC2CC3CCC(C2)N3Cc2ccco2)cc1", "note": "(stereo not drawn)", "activity change, negative = inhibition": "inactive"}, {"smiles": "O=C(N/N=C/c1ccc(-c2ccc(Br)cc2)o1)c1ccc2c(c1)OCO2", "activity change, negative = inhibition": "inconclusive: -10.7%"}, {"smiles": "O=C(N/N=C/c1ccccn1)c1ccc(S(=O)(=O)N2CCCCCC2)cc1", "activity change, negative = inhibition": "inconclusive: -84.6%"}, {"smiles": "Cc1cccc(N2C(=O)/C(=C\\c3ccc(C(=O)O)cc3)c3ccccc3C2=O)c1", "activity change, negative = inhibition": "inactive"}, {"smiles": "CCOC(=O)c1c(CSc2ccccc2)n(C)c2cc(Br)c(OCC(O)CNC(CO)(CO)CO)cc12", "note": "(stereo not drawn)", "Potency": "inconclusive: 16.4 µM [falling, partial curve, poor fit]"}, {"smiles": "O=C(Cn1nc(Cl)nc1Cl)c1cc2ccccc2oc1=O", "activity change, negative = inhibition": "inconclusive: -1.02%"}, {"smiles": "O=C(O)CCC(NC(=O)c1ccc(Cl)cc1)C(=O)O", "note": "(stereo not drawn)", "activity change, negative = inhibition": "inactive"}, {"smiles": "Cc1ccc(S(=O)(=O)N(C)c2ccc(C(=O)NCCc3ccccc3)cc2)cc1", "activity change, negative = inhibition": "inconclusive: 10.3%"}, {"smiles": "CCOc1cc(-c2c(C#N)c(N)nc3c2CCc2ccccc2-3)ccc1O", "Potency": "inconclusive: 8.2 µM [rising, partial curve, poor fit]"}, {"smiles": "COC(=O)c1ccc(CC(=O)c2ccc(O)cc2O)o1", "activity change, negative = inhibition": "inconclusive: -4.17%"}, {"smiles": "COc1ccc2c(c1)nc1n2CN(CC2CCCO2)CN1Cc1ccccc1", "note": "(stereo not drawn)", "Potency": "inconclusive: 12.6 µM [falling, partial curve, poor fit]"}, {"smiles": "CCOC(=O)c1nnc(-c2ccccc2)nc1Oc1ccccc1Cl", "Potency": "inconclusive: 18.4 µM [falling, partial curve]"}, {"smiles": "Cc1cc(C(=O)COC(=O)c2n[nH]c3ccccc23)c(C)n1C", "Potency": "inconclusive: 25.9 µM [falling, partial curve]"}, {"smiles": "COC(=O)c1ccc(NS(=O)(=O)c2cc(C)ccc2OC)cc1", "activity change, negative = inhibition": "inconclusive: -2.51%"}, {"smiles": "CN1CCN(C(=S)SCC(=O)Nc2nc(-c3ccccc3)c(-c3ccccc3)o2)CC1", "activity change, negative = inhibition": "inconclusive: 11.7%"}, {"smiles": "COc1ccc(-c2nn(-c3ccccc3)cc2/C=N/NC(=O)c2ccc(Br)o2)cc1", "activity change, negative = inhibition": "inactive"}, {"smiles": "CN1CCN(c2nc(-c3ccc(C(C)(C)C)cc3)nc3ccccc23)CC1", "activity change, negative = inhibition": "inactive"}, {"smiles": "CN1C(=O)C2C(c3ccc(N(C)C)cc3)=NN(Cc3ccccc3)C2C1=O", "note": "(stereo not drawn)", "activity change, negative = inhibition": "inconclusive: 4.83%"}, {"smiles": "CSCC[C@H](NC(=O)NCCc1ccc(F)cc1)C(=O)O", "activity change, negative = inhibition": "inconclusive: 13.2%"}, {"smiles": "CCOC(=O)c1nc(Nc2ccc(C(=O)OC)cc2)c2ccccc2n1", "activity change, negative = inhibition": "inconclusive: -4.94%"}, {"smiles": "Cc1nc(NC(=S)NC(=O)c2cncc(Br)c2)ccc1Br", "activity change, negative = inhibition": "inconclusive: 26.3%"}, {"smiles": "CN1CCN(CCC(=O)Nc2ccc(Br)cc2)CC1", "Potency": "inconclusive: 5.62 µM [falling, single point]"}, {"smiles": "CC(=O)Nc1ccc(NC(=O)COc2ccccc2C(=O)Nc2cccc(Cl)c2Cl)cc1", "activity change, negative = inhibition": "inconclusive: 9.04%"}]}]}
